This note sets out measurements from paper PMC11384962.

Amino acid sequences for entries named in this document (tags omitted).
UniProt Q16637: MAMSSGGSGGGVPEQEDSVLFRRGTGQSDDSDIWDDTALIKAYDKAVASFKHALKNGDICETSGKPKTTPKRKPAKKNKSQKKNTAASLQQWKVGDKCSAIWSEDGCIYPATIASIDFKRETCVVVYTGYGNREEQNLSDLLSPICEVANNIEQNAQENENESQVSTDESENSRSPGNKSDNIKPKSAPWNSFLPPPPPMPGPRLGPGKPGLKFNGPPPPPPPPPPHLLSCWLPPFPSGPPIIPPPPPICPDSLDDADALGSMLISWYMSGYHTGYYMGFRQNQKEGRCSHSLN
UniProt O14893: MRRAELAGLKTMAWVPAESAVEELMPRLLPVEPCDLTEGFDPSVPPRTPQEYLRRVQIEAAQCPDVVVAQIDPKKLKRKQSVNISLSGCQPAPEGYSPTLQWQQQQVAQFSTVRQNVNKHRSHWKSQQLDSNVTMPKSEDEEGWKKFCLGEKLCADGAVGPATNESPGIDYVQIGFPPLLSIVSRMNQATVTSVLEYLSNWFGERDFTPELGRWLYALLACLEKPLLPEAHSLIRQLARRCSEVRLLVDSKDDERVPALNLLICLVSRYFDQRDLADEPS

The target of assay [1] is survival of motor neuron (SMN) protein, untagged (human (endogenous in BJ hiPSCs)) (UniProt Q16637). The assay is described as follows: co-IP; BJ WT and BJ SMN:Clover #23 hiPSC lysates, 1 mg protein per reaction; GFP-Trap DynaBeads, or anti-SMN antibody (anti-IgG mouse as control) with Protein A/G magnetic beads; overnight at 4°C; lysis buffer 25mM Tris HCl pH 7.4, 62.5mM NaCl, 2% NP-40, 1mM EDTA; western blot. For orientation: In western blotting, separated proteins are transferred to a membrane and probed.

Assay [2] has as its target SMN:Clover (survival of motor neuron protein with a C-terminal Clover reporter, endogenously tagged) (human (endogenous in BJ hiPSCs)) (UniProt Q16637). The assay is described as above.

No constants are given. Whether binding was seen depends on the method and setting. In cells and extracts the contact can be indirect. Some entries that bind do so weakly or less than the wild type.

For gemin2 (from UniProt O14893 1-280), the binding result in assay [1] and in assay [2] was “binds” in each case.
